Data published in patent publication US9062313B2, “Gem-difluorinated C-isopropylgalactoside derivates” (TFCHEM, priority 2011, dated 2015).

System: BLR(DE3) E. coli expression strain
Assay: Bacterial growth during the induction (OD at 600 nm)
Type: cell-based, Escherichia coli
Conditions: for time from which a concentration effect on bacterial growth was observed: post induction, 0.5 to 0.005 mM

Row | Compound | time from which a concentration effect on bacterial growth was observed | bacterial growth, difference between IPTG and T-18 induction (same concentration (0.5, 0.1, 0.05, 0.01, 0.005 mM), 37° C., 24 h)
1 | CC(C)C(F)(F)[C@@H]1O[C@H](CO)[C@H](O)[C@H](O)[C@H]1O [Compound T-18] | ≥ 2 h | no differences were observed
2 | CC(C)S[C@@H]1O[C@H](CO)[C@H](O)[C@H](O)[C@H]1O [IPTG, isopropyl-β-D -thiogalactopyranoside, reference compound] | ≥ 8 h | 
